# Library screening results

By UniProt entry, the sequences of proteins in these tests, tags left out.
UniProt E9BF75, entry or part of it: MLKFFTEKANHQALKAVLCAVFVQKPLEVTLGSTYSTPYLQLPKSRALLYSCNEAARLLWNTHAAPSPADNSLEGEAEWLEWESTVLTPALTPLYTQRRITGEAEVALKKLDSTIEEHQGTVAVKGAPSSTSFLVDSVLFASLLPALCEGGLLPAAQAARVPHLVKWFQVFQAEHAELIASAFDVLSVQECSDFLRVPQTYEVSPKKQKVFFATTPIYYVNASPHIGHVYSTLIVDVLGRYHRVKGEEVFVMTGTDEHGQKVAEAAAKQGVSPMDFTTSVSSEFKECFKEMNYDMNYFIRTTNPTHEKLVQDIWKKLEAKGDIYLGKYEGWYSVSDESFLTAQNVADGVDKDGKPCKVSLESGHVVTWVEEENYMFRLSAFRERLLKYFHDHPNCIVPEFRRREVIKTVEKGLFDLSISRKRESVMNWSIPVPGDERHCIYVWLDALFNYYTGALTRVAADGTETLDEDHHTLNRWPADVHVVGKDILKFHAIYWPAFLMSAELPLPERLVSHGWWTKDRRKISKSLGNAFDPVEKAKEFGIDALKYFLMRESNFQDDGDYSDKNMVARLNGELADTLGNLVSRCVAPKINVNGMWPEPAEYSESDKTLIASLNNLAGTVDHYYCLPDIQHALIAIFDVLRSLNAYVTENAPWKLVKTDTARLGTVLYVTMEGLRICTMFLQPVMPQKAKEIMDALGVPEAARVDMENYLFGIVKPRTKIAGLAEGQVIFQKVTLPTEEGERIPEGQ

Source: ChEMBL document CHEMBL3988442, “University of Dundee, Small-Polar-MMV Screening Library” (2021).

Mtb heat-shock: 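Assay on Mycobacterium tuberculosis, filed only as a heat shock assay from Cornell; the read-out is not stated. The concentration is filed as 10 mM, unlikely as a test dose, so the dose is not known. Higher reads as stronger inhibition (inferred: compounds with an IC50 in retests scored well above the rest). Size under these conditions: about 69,000 compounds, about 930 of them at 50% or above in at least one test.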
LdMetRS: 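Methionyl-tRNA synthetase (putative), Leishmania donovani (UniProt E9BF75). Primary screen of methionyl-tRNA synthetase; the read-out is not stated. The test concentration is not given. The values are filed as inhibition. Size under these conditions: about 68,000 compounds, about 24 of them at 50% or above in at least one test.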
Mtb growth Cornell: 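Whole-cell assay for inhibitors of Mycobacterium tuberculosis growth, labelled Cornell in the record; the read-out is not stated. The concentration is filed as 10 mM, unlikely as a test dose, so the dose is not known. The record gives no direction; compounds strong in two other growth screens of this library score well above the rest, so higher reads as stronger inhibition. Size under these conditions: about 53,000 compounds, about 900 of them at 50% or above in at least one test.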

Results are percentages, as filed. The controls that fix the scale are not given in the record; negative values are as filed. The compounds are a random part of those screened. A dash means the value is not listed here; it may have been measured.

SMILES: C=C(C)COc1cccc(C(=O)N(C)C(C)c2c(C)n[nH]c2C)c1 (stereo not given)
Mtb heat-shock: -4.593%
LdMetRS: 8.824%
Mtb growth Cornell: 4.023%

SMILES: CN(C)c1cc(CNC(=O)Nc2nccs2)ccn1
Mtb heat-shock: -17%
LdMetRS: 9.29%

SMILES: CCOc1ccc(CN2CCN(CCOC)[C@@H]3CS(=O)(=O)C[C@@H]32)cc1
LdMetRS: 7.692%

SMILES: CCS(=O)(=O)Cc1csc(-c2ccc(S(C)(=O)=O)cc2)n1
Mtb heat-shock: 6.45%
LdMetRS: 9.922%
Mtb growth Cornell: -89.95%

SMILES: CN(Cc1nccn1C)S(=O)(=O)Cc1cccc(C#N)c1
Mtb heat-shock: -9.353%
LdMetRS: 7.447%
Mtb growth Cornell: -1.669%

SMILES: Cc1cnn(CC2CN(Cc3nc4cccnc4[nH]3)CCO2)c1 (stereo not given)
Mtb heat-shock: -35.32%
LdMetRS: 2.762%

SMILES: CN(C)c1cc(CNC(=O)Nc2nncs2)ccn1
Mtb heat-shock: -28.72%
LdMetRS: 24.04%

SMILES: O=C(O)COCC(=O)NC1CC2(CCCCC2)Oc2ccccc21 (stereo not given)
Mtb heat-shock: -13.66%
LdMetRS: -0.6431%
Mtb growth Cornell: -42.88%

SMILES: CCC(CC)CS(=O)(=O)NC(=O)C1CCCC1
Mtb heat-shock: -11.13%
LdMetRS: 5.013%
Mtb growth Cornell: -19.57%

SMILES: Cc1cnc(N2CCCC3(CCN(Cc4csc(C)n4)C3=O)C2)nc1.O=C(O)C(F)(F)F.O=C(O)C(F)(F)F (stereo not given)
Mtb heat-shock: -3.802%
Mtb growth Cornell: 36.92%

SMILES: O=C(NCC1CC1)[C@H]1CN(Cc2nccs2)C[C@H]2OCC[C@@H]12
LdMetRS: 18.68%

SMILES: O=C(O)C1(n2ccnc2)CCN(Cc2cc3ccccc3o2)CC1
Mtb heat-shock: -3.158%
LdMetRS: 11.2%
Mtb growth Cornell: 7.961%

SMILES: Cc1nc(Nc2cnccn2)cc(C2CCN(c3ncccn3)C2)n1 (stereo not given)
Mtb heat-shock: -0.2204%
LdMetRS: 12.3%
Mtb growth Cornell: -14.64%

SMILES: O=C1NCC(C(=O)Nc2ncc(Cc3cccc(F)c3)s2)N1 (stereo not given)
Mtb heat-shock: -10.08%
LdMetRS: 20.51%
Mtb growth Cornell: 15.28%

SMILES: Cc1cnn(CC2CCCN2C(=O)Cc2cccs2)c1 (stereo not given)
Mtb heat-shock: 1.611%
LdMetRS: 19.2%
Mtb growth Cornell: -11.62%

SMILES: CN1C[C@H]2CCN(C(=O)NC3CCCC3)CC[C@H]2S1(=O)=O
LdMetRS: 7.054%

SMILES: Cc1nc2ccccc2nc1CN1CCCC1c1c(C)nn(C)c1C (stereo not given)
Mtb heat-shock: 2.964%
LdMetRS: 18.75%

SMILES: CC(NC(=O)CN1CCCC1=O)c1ccc(Cl)s1 (stereo not given)
Mtb heat-shock: -24.97%
LdMetRS: 4.144%

SMILES: O=C(O)C(F)(F)F.[H][C@@]12CCCO[C@]1([H])[C@H](N(C)C)CN2C(=O)Cc1cccc(F)c1
Mtb heat-shock: -1.237%
Mtb growth Cornell: -1.674%

SMILES: COc1ccc(-n2cnnc2SCC(=O)N(C)C(C)C)cn1
Mtb heat-shock: -4.15%
LdMetRS: 9.019%
Mtb growth Cornell: -32.56%

SMILES: CN(Cc1ccc(F)cc1)C(=O)c1ccoc1CN1CCNC(=O)C1
Mtb heat-shock: 13.39%
LdMetRS: -5.721%
Mtb growth Cornell: 17.71%

SMILES: O=C(O)C(F)(F)F.[H][C@@]12COC[C@]1([H])[C@H](NC(=O)c1cccn1C)CN2CC1CC1
Mtb heat-shock: 6.179%
Mtb growth Cornell: 25.35%

SMILES: CCOc1ccc(S(=O)(=O)NCCCc2ccc(N(C)C)cc2)cc1C
Mtb heat-shock: 45.48%
LdMetRS: 13.67%
Mtb growth Cornell: 36.03%

SMILES: CN1CCCC2(CCN(c3cccc(C#N)n3)C2)C1=O (stereo not given)
Mtb heat-shock: 0.5851%
LdMetRS: 8.078%
Mtb growth Cornell: 1.158%

SMILES: CCc1nc(CCNc2ncccn2)sc1C
Mtb heat-shock: -164%
LdMetRS: 11.18%

SMILES: CC1(C)CN(C(=O)CC2CCC2)C[C@]1(C)O
Mtb heat-shock: 2.604%
LdMetRS: 14.17%

SMILES: CCCS(=O)(=O)N1CCC(NC(=O)c2cc(CC)c(C)s2)CC1
Mtb heat-shock: 6.461%
LdMetRS: -3.183%
Mtb growth Cornell: -14.58%

SMILES: CCCOc1cccc(C(=O)N2CCCC(n3cncn3)C2)c1 (stereo not given)
Mtb heat-shock: -8.494%
LdMetRS: 19.37%
Mtb growth Cornell: 2.869%

Some entries from above, unchanged:

| SMILES | Mtb heat-shock | LdMetRS | Mtb growth Cornell |
|---|---|---|---|
| `CN1C[C@H]2CCN(C(=O)NC3CCCC3)CC[C@H]2S1(=O)=O` | - | 7.054% | - |
| `CCCOc1cccc(C(=O)N2CCCC(n3cncn3)C2)c1` (stereo not given) | -8.494% | 19.37% | 2.869% |